PubChem BioAssay AID1508588, Peter MacCallum Cancer Centre – 2020

Screen: 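Genome-wide search for knock-downs that heighten vemurafenib action in melanoma cells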 (primary screen)
Cells: human WM266.4 melanoma cells (BRAF V600 mutant)
Knock-down reagent: siRNA pool against human genes, 40 nM
Duration: 96 h from transfection to read-out
Conditions: vemurafenib 300 nM (about IC25), added 48 h after transfection, for 48 h; comparison arm got DMSO vehicle only
Measured: 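Cell gain (DAPI nuclei at end minus before drug, mean of two replicates) and medium lactate by absorbance per cell, both as ratio to non-targeting siRNA, also grouped into fold-change classes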
Direction: cell gain with vemurafenib: higher = more cell gain than with non-targeting siRNA; lactate per cell with vemurafenib: higher = more lactate made per cell
Active means: 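Enhancement is called by pairing each knock-down's vehicle-arm and drug-arm fold-change classes for viability or glycolysis; which class combinations qualify is not given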
Calls: active = enhances vemurafenib effect; inactive = no enhancement seen
This is an unselected part of about 18,000 deposited reagents. 790 of all reagents (4.4%) were called active. 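Calls rest on a combination of fold-change classes in drug and vehicle arms, not all shown here.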 Unmarked entries are inactive. Reagent sequences are not shown.

With BCAR1, what was measured?
cell gain with vemurafenib: 0.13 (active); lactate per cell with vemurafenib: -0.2

With GHRHR, what does the deposit list?
cell gain with vemurafenib: 0.21; lactate per cell with vemurafenib: 1.52

How did the screen score SOWAHA?
cell gain with vemurafenib: 0.79; lactate per cell with vemurafenib: 0.83

For CLDN12, how do the results read?
cell gain with vemurafenib: 0.56; lactate per cell with vemurafenib: 1.13

Which result is listed for MDP1?
cell gain with vemurafenib: 0.82; lactate per cell with vemurafenib: 0.98

How did the screen score CTSB?
cell gain with vemurafenib: 0.22; lactate per cell with vemurafenib: 1.18

What did the screen give for SLC16A14?
cell gain with vemurafenib: 0.84; lactate per cell with vemurafenib: 0.92

What is on record for BCL7C?
cell gain with vemurafenib: 0.69; lactate per cell with vemurafenib: 0.49

How did the screen score ADRB1?
cell gain with vemurafenib: 0.83; lactate per cell with vemurafenib: 0.34

For ZSCAN29, how do the results read?
cell gain with vemurafenib: 0.87; lactate per cell with vemurafenib: 0.26

Which result is listed for DIO1?
cell gain with vemurafenib: -0.01; lactate per cell with vemurafenib: 2.2

With COMMD6, what does the deposit list?
cell gain with vemurafenib: 0.77; lactate per cell with vemurafenib: 0.73

With MYO3A, what was measured?
cell gain with vemurafenib: 0.39; lactate per cell with vemurafenib: 1.33

What did the screen give for CINP?
cell gain with vemurafenib: 0.26; lactate per cell with vemurafenib: 0.62

How did the screen score MANBAL?
cell gain with vemurafenib: 0.57; lactate per cell with vemurafenib: 1.34

With RIMS1, what was measured?
cell gain with vemurafenib: 0.86; lactate per cell with vemurafenib: 0.82

How did the screen score NME3?
cell gain with vemurafenib: 0.58; lactate per cell with vemurafenib: 1.25

For SP8, what was measured?
cell gain with vemurafenib: 1.44; lactate per cell with vemurafenib: 0.76

For CWC15, what does the deposit list?
cell gain with vemurafenib: 0.33; lactate per cell with vemurafenib: 0.9

For DTNA, what was measured?
cell gain with vemurafenib: -0.02; lactate per cell with vemurafenib: 1.89

With CCDC136, what was measured?
cell gain with vemurafenib: 0.74; lactate per cell with vemurafenib: 0.56

With TNFRSF14, how do the results read?
cell gain with vemurafenib: 0.68; lactate per cell with vemurafenib: 1.35

With IL23A, how do the results read?
cell gain with vemurafenib: 0.42; lactate per cell with vemurafenib: 1.92

What did the screen give for THUMPD3?
cell gain with vemurafenib: 0.45 (active); lactate per cell with vemurafenib: 0.06

With ZNF350, what does the deposit list?
cell gain with vemurafenib: 0.68; lactate per cell with vemurafenib: 1.13

What did the screen give for KLHDC2?
cell gain with vemurafenib: 0.36 (active); lactate per cell with vemurafenib: 0.48

Which result is listed for G6PC1?
cell gain with vemurafenib: 0.65; lactate per cell with vemurafenib: 0.27

Targets listed so far whose target name starts with B or b:
BCAR1 | cell gain with vemurafenib: 0.13 (active); lactate per cell with vemurafenib: -0.2
BCL7C | cell gain with vemurafenib: 0.69; lactate per cell with vemurafenib: 0.49
